Patent publication US20160237154A1 (SORRENTO THERAPEUTICS, published 2016)
Results are given in words; binding and its absence hold for the method and conditions named. Some binding calls cover weakened binding; strength is not graded here. Tags and fused reporters may be left off the sequences shown.

Target: T1, cynomolgus CTLA4/His (cynomolgus) (UniProt G7PL88)
T1 sequence: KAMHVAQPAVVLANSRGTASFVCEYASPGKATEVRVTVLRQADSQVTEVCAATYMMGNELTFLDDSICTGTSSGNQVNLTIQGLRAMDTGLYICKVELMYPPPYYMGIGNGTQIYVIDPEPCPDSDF
Assay: ELISA, CTLA4/His captured on Ni-NTA plate, antibody ~1 ug/mL, anti-human Fc-HRP

binding: binds
B1: CT1E1 (antibody, V domains shown)
VH: EVQLVESGGGLVQPGRSLRLSCRGSNFNFDDLAISWVRQAPGKGLEWLGFVRSKAYGETTDYVASVKGRFTISRDDSKFIAWLQMDSLKTDDTAVYYCTTFNYWGQGTLVTVSS
VL: QPVLTQPPSVSVAPGKTARISCGGNNIASEAVHWYQKKPGQAPVLVIYYDSDRPSGIPERFSGSNSGNTATLRISRVDAGDEADYYCQVWDRTTDQPVFGGGTKLTVL
notes: also called human anti-CTLA4 antibody CT1E1
